{"source": "PubChem BioAssay AID602196 (INSERM, 2012)", "purpose": "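Modifiers of cisplatin sensitivity in A549 cells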", "cell system": "human A549 lung cancer cells", "knock-down reagent": "siRNA pair against human genes", "timing": "48 h transfection before cisplatin; time from cisplatin to read-out not stated", "conditions": "cisplatin at a dose killing half of control-siRNA cells; exact dose and duration not given", "detection": "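Cisplatin cell death as a shift from the 50% death seen with control siRNA; siRNAs toxic or growth-blocking alone scored 0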", "reading the numbers": "two-siRNA summed score (-2 to +2): higher = both siRNAs protect from cisplatin killing; -2 means both sensitise; mean protection from cisplatin (shift in death): higher = protection from cisplatin killing", "hit rule": "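Each siRNA scores 0 if harmful alone by LDH or WST-1, otherwise +1 if it reduces and -1 if it increases cisplatin killing; a gene is active when both siRNAs agree (sum +2 or -2)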", "meaning of the calls": "active = both siRNAs shift cisplatin killing the same way; inactive = no consistent shift, or siRNA harmful alone", "note": "This is a random part of about 23,000 reagents. Of all reagents, 455 (2%) were called active. 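Active includes both protection and sensitisation; some change values fall well beyond the stated -50 to +50 range.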 Further read-outs or replicates are left out here. The record does not give: the amount of reagent."}
{"Target gene": "DOC2A", "two-siRNA summed score (-2 to +2)": 1, "mean protection from cisplatin (shift in death) (%)": 7.5, "activity call": "inactive"}
{"Target gene": "ETFA", "two-siRNA summed score (-2 to +2)": 0, "mean protection from cisplatin (shift in death) (%)": -4.9, "activity call": "inactive"}
{"Target gene": "ANKRD36", "two-siRNA summed score (-2 to +2)": 0, "mean protection from cisplatin (shift in death) (%)": -7, "activity call": "inactive"}
{"Target gene": "MT1X", "two-siRNA summed score (-2 to +2)": 1, "mean protection from cisplatin (shift in death) (%)": 15.5, "activity call": "inactive"}
{"Target gene": "LOC400586", "two-siRNA summed score (-2 to +2)": 0, "mean protection from cisplatin (shift in death) (%)": 1.6, "activity call": "inactive"}
{"Target gene": "ATP5PD", "two-siRNA summed score (-2 to +2)": 0, "mean protection from cisplatin (shift in death) (%)": 3.6, "activity call": "inactive"}
{"Target gene": "ABCC13", "two-siRNA summed score (-2 to +2)": 0, "mean protection from cisplatin (shift in death) (%)": 4, "activity call": "inactive"}
{"Target gene": "SLC2A7", "two-siRNA summed score (-2 to +2)": -1, "mean protection from cisplatin (shift in death) (%)": -7.7, "activity call": "inactive"}
{"Target gene": "TRIM34", "two-siRNA summed score (-2 to +2)": 0, "mean protection from cisplatin (shift in death) (%)": 1.7, "activity call": "inactive"}
{"Target gene": "GP1BB", "two-siRNA summed score (-2 to +2)": 1, "mean protection from cisplatin (shift in death) (%)": 20.8, "activity call": "inactive"}
{"Target gene": "TSSC4", "two-siRNA summed score (-2 to +2)": 1, "mean protection from cisplatin (shift in death) (%)": 16.9, "activity call": "inactive"}
{"Target gene": "SLC35F2", "two-siRNA summed score (-2 to +2)": 0, "mean protection from cisplatin (shift in death) (%)": -5.3, "activity call": "inactive"}
{"Target gene": "LAS1L", "two-siRNA summed score (-2 to +2)": 0, "mean protection from cisplatin (shift in death) (%)": -2, "activity call": "inactive"}
{"Target gene": "VN1R10P", "two-siRNA summed score (-2 to +2)": 2, "mean protection from cisplatin (shift in death) (%)": 28, "activity call": "active"}
{"Target gene": "IRF2BP1", "two-siRNA summed score (-2 to +2)": 0, "mean protection from cisplatin (shift in death) (%)": -23.1, "activity call": "inactive"}
{"Target gene": "LOC442382", "two-siRNA summed score (-2 to +2)": 0, "mean protection from cisplatin (shift in death) (%)": 8.5, "activity call": "inactive"}
{"Target gene": "EXOSC4", "two-siRNA summed score (-2 to +2)": 0, "mean protection from cisplatin (shift in death) (%)": -0.9, "activity call": "inactive"}
{"Target gene": "ANKRD53", "two-siRNA summed score (-2 to +2)": 0, "mean protection from cisplatin (shift in death) (%)": -3.1, "activity call": "inactive"}
{"Target gene": "PHF21B", "two-siRNA summed score (-2 to +2)": 0, "mean protection from cisplatin (shift in death) (%)": -1.7, "activity call": "inactive"}
{"Target gene": "CIBAR1", "two-siRNA summed score (-2 to +2)": 0, "mean protection from cisplatin (shift in death) (%)": 4, "activity call": "inactive"}
{"Target gene": "LOC440569", "two-siRNA summed score (-2 to +2)": 0, "mean protection from cisplatin (shift in death) (%)": 5.1, "activity call": "inactive"}
